The text below walks through data of article PMC10882002, “Design of target specific peptide inhibitors using generative deep learning and molecular dynamics simulations” (Nature Communications, 2024).

Sequences of proteins named here, by UniProt entry; tags and fusion partners are left off. Residues count along the entry.
UniProt Q9Y6K9, 1-196, species assumed: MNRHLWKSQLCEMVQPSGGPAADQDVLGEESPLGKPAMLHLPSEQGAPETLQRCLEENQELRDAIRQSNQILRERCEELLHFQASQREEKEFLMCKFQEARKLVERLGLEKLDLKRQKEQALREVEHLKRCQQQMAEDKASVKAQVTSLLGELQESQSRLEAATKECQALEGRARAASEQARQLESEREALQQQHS

This test deals with T1, NEMO (Homo sapiens, UniProt Q9Y6K9).
T1 construct: made in house; host or cells: E. coli BL21 (DE3)
In words: Competitive homogeneous time-resolved fluorescence (HTRF) assay for NEMO binding (GST-NEMO / biotin-IKKβKK/RR). Here is the method: All experiments were performed in triplicates (n = 3).
Source data are provided as a Source Data file. […]
Background: Time-resolved FRET reads energy transfer from a long-lived donor to a nearby acceptor.

In general, IC50 refers to the concentration at which inhibition is half-maximal. Read a low IC50 as inhibition by little substance. `CC(C)C[C@H](NC(=O)[C@H](C)NC(=O)[C@@H](NC(=O)[C@H](Cc1c[nH]cn1)NC(=O)[C@H](CO)NC(=O)[C@H](CO)NC(=O)[C@H](Cc1c[nH]cn1)NC(=O)[C@H](CO)NC(=O)[C@@H](N)Cc1c[nH]c2ccccc12)[C@@H](C)O)C(=O)N[C@@H](CC(=O)O)C(=O)N[C@@H](Cc1c[nH]c2ccccc12)C(=O)N[C@@H](CO)C(=O)N[C@@H](Cc1c[nH]c2ccccc12)C(=O)N[C@@H](CC(C)C)C(=O)N[C@@H](CCC(N)=O)C(=O)N[C@H](C(=O)N[C@@H](CCC(=O)O)C(N)=O)[C@@H](C)O` [NBD+2] came in with a half-maximal inhibitory concentration (IC50) of 50 µM.
